No constants are given. Whether binding was seen depends on the method and setting. Some results given as binding are weak or reduced against the parent protein; the word gives no strength. For part of these data: Tags and fused reporters may be left off the sequences shown.

Amino acid sequences for entries named in this document (tags omitted). Residues count along the entry.
UniProt Q99523, residues 78-831: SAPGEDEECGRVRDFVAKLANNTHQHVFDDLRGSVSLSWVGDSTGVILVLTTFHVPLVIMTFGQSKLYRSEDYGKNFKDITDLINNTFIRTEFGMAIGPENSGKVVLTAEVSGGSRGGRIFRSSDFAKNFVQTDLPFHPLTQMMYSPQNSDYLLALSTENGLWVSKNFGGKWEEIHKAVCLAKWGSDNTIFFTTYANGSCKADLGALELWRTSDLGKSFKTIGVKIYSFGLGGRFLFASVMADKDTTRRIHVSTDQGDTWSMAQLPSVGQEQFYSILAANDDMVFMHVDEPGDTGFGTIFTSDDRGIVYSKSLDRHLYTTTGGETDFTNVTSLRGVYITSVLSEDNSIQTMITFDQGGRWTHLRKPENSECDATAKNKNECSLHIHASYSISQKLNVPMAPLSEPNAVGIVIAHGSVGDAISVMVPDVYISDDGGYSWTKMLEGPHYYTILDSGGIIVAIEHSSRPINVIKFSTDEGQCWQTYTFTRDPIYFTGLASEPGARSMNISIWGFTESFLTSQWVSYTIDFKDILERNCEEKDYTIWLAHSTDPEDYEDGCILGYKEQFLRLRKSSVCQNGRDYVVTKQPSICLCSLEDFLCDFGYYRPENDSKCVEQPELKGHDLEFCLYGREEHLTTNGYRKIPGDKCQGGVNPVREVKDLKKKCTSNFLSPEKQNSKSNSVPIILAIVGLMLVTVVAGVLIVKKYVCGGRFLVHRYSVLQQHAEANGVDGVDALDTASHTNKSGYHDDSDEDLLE
UniProt Q6PHU5, residues 74-825: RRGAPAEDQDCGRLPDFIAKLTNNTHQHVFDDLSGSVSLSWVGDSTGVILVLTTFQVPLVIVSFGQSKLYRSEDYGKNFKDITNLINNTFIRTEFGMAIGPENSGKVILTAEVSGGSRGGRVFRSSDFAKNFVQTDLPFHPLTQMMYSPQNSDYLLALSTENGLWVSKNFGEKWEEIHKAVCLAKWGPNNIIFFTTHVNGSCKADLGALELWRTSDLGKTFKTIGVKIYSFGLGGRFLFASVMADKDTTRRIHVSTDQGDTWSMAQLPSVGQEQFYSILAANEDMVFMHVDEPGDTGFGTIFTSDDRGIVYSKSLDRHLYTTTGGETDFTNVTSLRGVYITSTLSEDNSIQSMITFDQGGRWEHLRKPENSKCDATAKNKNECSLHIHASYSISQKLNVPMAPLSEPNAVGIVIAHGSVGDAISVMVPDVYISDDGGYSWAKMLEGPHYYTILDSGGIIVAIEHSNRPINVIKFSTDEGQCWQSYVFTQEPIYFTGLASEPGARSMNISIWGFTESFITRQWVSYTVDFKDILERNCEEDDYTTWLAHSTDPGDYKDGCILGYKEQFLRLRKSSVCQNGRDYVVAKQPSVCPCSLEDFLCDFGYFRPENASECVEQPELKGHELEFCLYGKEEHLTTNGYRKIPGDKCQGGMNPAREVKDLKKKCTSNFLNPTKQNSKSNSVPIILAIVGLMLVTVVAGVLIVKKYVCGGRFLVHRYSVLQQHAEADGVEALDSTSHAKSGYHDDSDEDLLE

The target in assay [1] is wild type sortilin expressed in COS-7 cells (UniProt Q99523). Kind of assay: competition of binding of alkaline phosphatase fusion ligands to transfected cells; sortilin expressing COS-7 cells incubated with 150 nM purified his-PGRN, his-PGRNΔ3aa or C18 peptide of indicated concentrations for 1 hour before adding 10 nM of AP-PGRN or AP-C24; the competitor on sortilin; only the binder purified.

In assay [2] the target is mouse sortilin expressed in COS-7 cells (mouse) (UniProt Q6PHU5). Kind of assay: binding of alkaline phosphatase fusion ligands to transfected cells; COS-7 cells transfected with mouse sortilin incubated with 10 or 50 nM of AP tagged mC24, mC21 or hC24.
In assay [3] the target is wild type sortilin expressed in COS-7 cells (UniProt Q99523). As to the kind of experiment: binding of alkaline phosphatase fusion ligands to transfected cells; conditioned media with AP ligands (100 nM where stated) incubated with sortilin transfected COS-7 cells 2 hrs at room temperature, fixation, heat inactivation of endogenous AP; bound AP measured with the ImageXpress system.

For the molecule EAPRWDAPLRDPALRQLL [C18 peptide C-terminal to the granulin E motif of progranulin], the binding result in assay [1] is given as “binds”.
As to TKCLRKKIPRWDMFLRDPVPRPLL (domain or fragment, UniProt P28798 566-589) [AP tagged C24 of mouse progranulin], the binding entry in assay [2] is reported as “binds”.
Turning to ALRQLL (domain or fragment) [alkaline phosphatase fusion with the C-terminal 6 residues of progranulin], the binding entry in assay [3] is given as “binds”.
